Source: article PMC7819943, “Rice protein-binding microarrays: a tool to detect cis-acting elements near promoter regions in rice”
This is one part of the list.

Target: T1, OsSMF1 (Oryza sativa, UniProt Q6ZLB0 1-436)
T1 sequence: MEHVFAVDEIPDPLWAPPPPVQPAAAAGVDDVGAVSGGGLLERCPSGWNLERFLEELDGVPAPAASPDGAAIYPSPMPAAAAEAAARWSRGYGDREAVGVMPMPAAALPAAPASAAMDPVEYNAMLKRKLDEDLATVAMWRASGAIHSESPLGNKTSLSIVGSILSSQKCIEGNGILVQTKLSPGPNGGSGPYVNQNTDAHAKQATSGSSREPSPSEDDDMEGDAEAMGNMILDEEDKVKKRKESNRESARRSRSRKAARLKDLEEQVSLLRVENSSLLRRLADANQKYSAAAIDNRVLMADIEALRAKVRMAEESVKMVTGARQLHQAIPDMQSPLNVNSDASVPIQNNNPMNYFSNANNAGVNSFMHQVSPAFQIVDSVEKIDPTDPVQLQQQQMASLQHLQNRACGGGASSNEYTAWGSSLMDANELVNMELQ
Experiment: protein-binding microarray (RPBM); PBS, 2% BSA, 51.3 ng/ul salmon testes DNA, 50 uM zinc acetate, 200 nM TF, 25 C, 1 h; high values mean tight binding
Conditions: protein: recombinant; tags: N-terminal polyhistidine and DsRed monomer fusion (pET32a); chain copies: 2; label: CyDye5-dUTP incorporated in the synthesized complementary strand; 3' TTTTT single-stranded linker to array surface; dsDNA, one strand shown
Procedure, shortened: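 Binding signal is reported as fluorescence intensity per feature (arbitrary units) from an Axon 4000B scanner. Incubation used 200 nM of each Ni–NTA-purified, N-terminally polyhistidine- and DsRed-fused transcription factor from E. coli BL21-CodonPlus on a double-stranded custom Agilent array for 1 h at 25 °C, with 50 µM zinc acetate in the buffer, followed by washing.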

| Sequence | binding signal |
| --- | --- |
| TCCCTTGATCCGATCACGAATGCTTAGGTGGACTTTGTTTCGGAGTCACCTAGTGCAG | 4460 fluorescence intensity (a.u.) |
| TGATGTTACAGTAAACTTTTGATAATTATGGATTAATTAGCGGAGTCACCTAGTGCAG | 3670 fluorescence intensity (a.u.) |
| CCGTCGCGGGGCCCGGGCGTCCGACGTGGCCGACCAGGCGCGGAGTCACCTAGTGCAG | 9350 fluorescence intensity (a.u.) |
| TGGCGTCCAGCACGAACTCCGCCTCCCGCGTCGACGTGTACGGAGTCACCTAGTGCAG | 6920 fluorescence intensity (a.u.) |
| ATTGCCGCCATTCAGGAAGACATCGTCGGATGCGGTGGCACGGAGTCACCTAGTGCAG | 4160 fluorescence intensity (a.u.) |
| TGTGGATAAGGTTGGAGGGTATTTCGGTCACTACGAAAATCGGAGTCACCTAGTGCAG | 3190 fluorescence intensity (a.u.) |
| AAACATGGGCTCGGCCCAAGCCACGTCATACGAGCACGGACGGAGTCACCTAGTGCAG | 18100 fluorescence intensity (a.u.) |
| GGCTAGCTCTCATGTATGATGTCATTGAGAAGATCGACTACGGAGTCACCTAGTGCAG | 5340 fluorescence intensity (a.u.) |
| AATTAAAATGTTCGTACAGTACACGACGATTCCCACCTTGCGGAGTCACCTAGTGCAG | 4380 fluorescence intensity (a.u.) |
| AGCCGCACATCATCTCGCTAACGTCATCCTTTGTGCCGAACGGAGTCACCTAGTGCAG | 6700 fluorescence intensity (a.u.) |
| AAAGAAATAGCAGACTGCTGACTACACTTTATCTGAGCATCGGAGTCACCTAGTGCAG | 3810 fluorescence intensity (a.u.) |
| CGCCATGCTTTGTCCTTGGTGTCACCACACTGTCCCTCCTCGGAGTCACCTAGTGCAG | 3600 fluorescence intensity (a.u.) |
| CCGTTACATTGTTCCAATTTTAATTAAACTTCCAATTTTACGGAGTCACCTAGTGCAG | 30600 fluorescence intensity (a.u.) |
| CGGCGGCGGCGACCGCGGGTAGGGTGGGTGGCGCGGGCCGCGGAGTCACCTAGTGCAG | 3640 fluorescence intensity (a.u.) |
| GGCAAGTTGTCGTTTATTGACCTTGCTGGCAGTGAGCGTGCGGAGTCACCTAGTGCAG | 3780 fluorescence intensity (a.u.) |
| CAGATAGAAGAGAGGAAGCACGCACACACTTGTGAGTTGTCGGAGTCACCTAGTGCAG | 3620 fluorescence intensity (a.u.) |
| GAGGACTTGGAAACGACGCTGACGAGTTTCACCAGGATGACGGAGTCACCTAGTGCAG | 3660 fluorescence intensity (a.u.) |
| TAGGAGTGTTTTCGCTGTGTACACGCCGACGTGGGTCCATCGGAGTCACCTAGTGCAG | 3620 fluorescence intensity (a.u.) |
| CGGTGGGCCCAGCTGTCAGCGAACGTGGGAGTTGGCACAGCGGAGTCACCTAGTGCAG | 5000 fluorescence intensity (a.u.) |
| TGTATGCAGCAATATCCACCGGCCCCACGGAACGGGCGGTCGGAGTCACCTAGTGCAG | 22800 fluorescence intensity (a.u.) |
| AGAACACCGGTCGTTTTGCTCGTGAGCTGTCTCGGGGTAGCGGAGTCACCTAGTGCAG | 3150 fluorescence intensity (a.u.) |

Copied from the listing (3 entries):

| Sequence | binding signal |
| --- | --- |
| TAGGAGTGTTTTCGCTGTGTACACGCCGACGTGGGTCCATCGGAGTCACCTAGTGCAG | 3620 fluorescence intensity (a.u.) |
| CGGTGGGCCCAGCTGTCAGCGAACGTGGGAGTTGGCACAGCGGAGTCACCTAGTGCAG | 5000 fluorescence intensity (a.u.) |
| TGTATGCAGCAATATCCACCGGCCCCACGGAACGGGCGGTCGGAGTCACCTAGTGCAG | 22800 fluorescence intensity (a.u.) |

(continued)

| Sequence | binding signal |
| --- | --- |
| CTGGCAAGTCCTTCTGCAGTGCCCTTTCAAGTTTCTTTGACGGAGTCACCTAGTGCAG | 24300 fluorescence intensity (a.u.) |
| TGGTGGCTGTGGGTGGATAAAACCGAGGCCCACGCCTGCACGGAGTCACCTAGTGCAG | 3260 fluorescence intensity (a.u.) |
| AGACACATGCCCAGGTTTACCACGTATACTCTTTGAGTTGCGGAGTCACCTAGTGCAG | 4220 fluorescence intensity (a.u.) |
| GGTGGCGTGCTCCCGGTTTTCTTCGGCCGAAACCGAAAGCCGGAGTCACCTAGTGCAG | 17400 fluorescence intensity (a.u.) |
| CTTGGCTACCCTCCACCGGCGTCACCTTCACCGCTGACCTCGGAGTCACCTAGTGCAG | 3900 fluorescence intensity (a.u.) |
| CCTTATTACGTGCCAACTTCGGAGACTTGTACCAGTACTTCGGAGTCACCTAGTGCAG | 3210 fluorescence intensity (a.u.) |
| CTTGAGACAGAACCCGACACTGACATGTAGGGCCCACCTGCGGAGTCACCTAGTGCAG | 3820 fluorescence intensity (a.u.) |
| TGTGCAATGGTACATCATGAACAGTGTTTCGTGTTGAATGCGGAGTCACCTAGTGCAG | 4200 fluorescence intensity (a.u.) |
| ATTTCAGAATCATGACGCATGATATTGACCTCATTGATGACGGAGTCACCTAGTGCAG | 7840 fluorescence intensity (a.u.) |
| TAGTGACAAAGACACGTGACTTTGACTACAGAGGATCTCTCGGAGTCACCTAGTGCAG | 5400 fluorescence intensity (a.u.) |
| ATTCTCATATGACTGATGTAAGCAATTACTTCGCATTGGCCGGAGTCACCTAGTGCAG | 4260 fluorescence intensity (a.u.) |
| CAGTTGACAAATGACAACCGGCACGTTTGCAACATGCAAGCGGAGTCACCTAGTGCAG | 3220 fluorescence intensity (a.u.) |
| CTGTTGGGGCATGCTTCCTCGCTCCACGCAAGCCCACATCCGGAGTCACCTAGTGCAG | 7560 fluorescence intensity (a.u.) |
| AAATATCTACGTTTAGTTTGTTGTCAAATTTGGTCAACATCGGAGTCACCTAGTGCAG | 3320 fluorescence intensity (a.u.) |
| TTAGAAGTTCGAATCTAGTAATAAGTATTGGCAATAACTCCGGAGTCACCTAGTGCAG | 37600 fluorescence intensity (a.u.) |
| AACTCGATGATGATGTCGCCACGACGCCTTGTATATATTTCGGAGTCACCTAGTGCAG | 3200 fluorescence intensity (a.u.) |
| CGCCTCCGTGGACCCGGTCCACGGGGAGATTACACCTTCACGGAGTCACCTAGTGCAG | 57600 fluorescence intensity (a.u.) |
| AGGGGCGAGTATCATACCGTCTCCGGCTAAGGCTCCGTCACGGAGTCACCTAGTGCAG | 17600 fluorescence intensity (a.u.) |
| ATGCATTGCATGAGCCATGATGGACTCAAAGAGTGAGTTGCGGAGTCACCTAGTGCAG | 3340 fluorescence intensity (a.u.) |
| TAGCAGAGACTAGGGCCTGCCTCCACGCCATGCTCTGCTTCGGAGTCACCTAGTGCAG | 3260 fluorescence intensity (a.u.) |
| ACATTGTGGCTTTGCAATCAGGCGTGACACGGCACGTGCCCGGAGTCACCTAGTGCAG | 7650 fluorescence intensity (a.u.) |
